Laboratory results from article PMC3953594.

Protein sequences, listed by entry. Tags and fused reporters are not part of them. Lines headed by an entry give the natural chain unless they say otherwise; changes in a name come on top.
UniProt Q9HBH7: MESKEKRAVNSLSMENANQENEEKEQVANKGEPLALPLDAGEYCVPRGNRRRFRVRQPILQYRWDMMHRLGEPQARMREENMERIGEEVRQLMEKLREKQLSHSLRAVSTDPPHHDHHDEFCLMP
UniProt P10415: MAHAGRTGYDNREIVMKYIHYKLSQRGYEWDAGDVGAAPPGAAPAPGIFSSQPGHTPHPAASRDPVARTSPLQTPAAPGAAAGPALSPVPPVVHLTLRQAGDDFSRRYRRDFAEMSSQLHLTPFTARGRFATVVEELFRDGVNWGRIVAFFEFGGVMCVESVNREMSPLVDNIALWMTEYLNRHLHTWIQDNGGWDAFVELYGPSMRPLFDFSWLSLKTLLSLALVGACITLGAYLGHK

Key:
[1] = target: HA-tagged BEX1 truncated mutant, residues 1-64 (human) (UniProt Q9HBH7); experiment: co-IP; lysates of HEK293 cells transfected with pCMV-HA constructs of BEX1; rabbit anti-BCL-2 or rabbit anti-HA antibody overnight at 4°C, protein A/G-agarose, washes in 1% CHAPS; blot with anti-HA or anti-BCL-2
[2] = target: HA-tagged BEX1 truncated mutant, residues 1-96 (human) (UniProt Q9HBH7); experiment: as above

binding [1]: binds
binding [2]: binds
Substance: B-cell lymphoma 2 (BCL-2), endogenous (from UniProt P10415 1-239)

No constants are given. Whether binding was seen depends on the method and setting. Binding seen in cells or lysates may run through a third protein. A result given as binding can be weak or reduced; the word gives no strength.
